From PMC7079398
These are yes or no findings as the source states them, for the method shown. In cells and extracts the contact can be indirect. Some results given as binding are weak or reduced against the parent protein; the word gives no strength.

Target: T1, DDX1 (human (endogenous; cell line not stated, all cell lines of the paper are human)) (UniProt Q92499)
T1 sequence: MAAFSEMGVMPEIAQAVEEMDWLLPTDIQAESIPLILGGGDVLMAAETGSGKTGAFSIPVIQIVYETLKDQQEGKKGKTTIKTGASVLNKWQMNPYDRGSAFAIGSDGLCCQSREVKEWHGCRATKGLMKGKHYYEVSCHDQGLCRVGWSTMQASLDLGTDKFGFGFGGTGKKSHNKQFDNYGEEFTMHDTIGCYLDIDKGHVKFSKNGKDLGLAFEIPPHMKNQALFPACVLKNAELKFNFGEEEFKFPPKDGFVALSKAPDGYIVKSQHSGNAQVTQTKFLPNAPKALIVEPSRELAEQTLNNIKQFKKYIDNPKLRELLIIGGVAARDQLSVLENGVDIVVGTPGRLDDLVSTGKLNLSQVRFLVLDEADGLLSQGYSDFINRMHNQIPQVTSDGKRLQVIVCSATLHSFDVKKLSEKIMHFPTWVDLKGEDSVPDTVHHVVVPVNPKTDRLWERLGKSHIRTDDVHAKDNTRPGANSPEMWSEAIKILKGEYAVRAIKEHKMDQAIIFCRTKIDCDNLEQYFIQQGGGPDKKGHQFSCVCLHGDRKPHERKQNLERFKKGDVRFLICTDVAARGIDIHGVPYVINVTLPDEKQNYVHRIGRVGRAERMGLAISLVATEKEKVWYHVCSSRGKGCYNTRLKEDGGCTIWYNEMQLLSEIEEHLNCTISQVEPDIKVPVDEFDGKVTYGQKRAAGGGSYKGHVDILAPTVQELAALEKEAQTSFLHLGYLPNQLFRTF
Experiment: co-IP; endogenous co-immunoprecipitation; interaction did not depend on RNA; cell line and precipitating antibody not stated

B1: DiGeorge syndrome critical region gene 8 (DGCR8) (protein, UniProt Q8WYQ5 1-773)
chain: METDESPSPLPCGPAGEAVMESRARPFQALPREQSPPPPLQTSSGAEVMDVGSGGDGQSELPAEDPFNFYGASLLSKGSFSKGRLLIDPNCSGHSPRTARHAPAVRKFSPDLKLLKDVKISVSFTESCRSKDRKVLYTGAERDVRAECGLLLSPVSGDVHACPFGGSVGDGVGIGGESADKKDEENELDQEKRVEYAVLDELEDFTDNLELDEEGAGGFTAKAIVQRDRVDEEALNFPYEDDFDNDVDALLEEGLCAPKKRRTEEKYGGDSDHPSDGETSVQPMMTKIKTVLKSRGRPPTEPLPDGWIMTFHNSGVPVYLHRESRVVTWSRPYFLGTGSIRKHDPPLSSIPCLHYKKMKDNEEREQSSDLTPSGDVSPVKPLSRSAELEFPLDEPDSMGADPGPPDEKDPLGAEAAPGALGQVKAKVEVCKDESVDLEEFRSYLEKRFDFEQVTVKKFRTWAERRQFNREMKRKQAESERPILPANQKLITLSVQDAPTKKEFVINPNGKSEVCILHEYMQRVLKVRPVYNFFECENPSEPFGASVTIDGVTYGSGTASSKKLAKNKAARATLEILIPDFVKQTSEEKPKDSEELEYFNHISIEDSRVYELTSKAGLLSPYQILHECLKRNHGMGDTSIKFEVVPGKNQKSEYVMACGKHTVRGWCKNKRVGKQLASQKILQLLHPHVKNWGSLLRMYGRESSKMVKQETSDKSVIELQQYAKKNKPNLHILSKLQEEMKRLAEEREETRKKPKMSIVASAQPGGEPLCTVDV
binding: binds
